For one molecule, binding results are on record in paper PMC10584935.

Results are given in words; binding and its absence hold for the method and conditions named. Some entries that bind do so weakly or less than the wild type. Where a sequence is shown, tags or fusion partners need not be part of it.

This assay addresses MAB-10 protein fused to the GAL4 DNA-binding domain (C. elegans) (UniProt Q22002). The assay is described as follows: two-hybrid; yeast Y2HGold, pGADT7 and pGBKT7 fusions; spot assay on SD/-Leu/-Trp/-His/-Ade plates with 10 mM 3-AT, 2 days at 30 °C.

B1: MAB-10 protein fused to the GAL4 DNA-binding domain (protein, UniProt Q22002 1-582)
chain: MSSSSSSSLPTSSASTTTSSITSRPSASHHLESILSSSSSSPSILSSLTTQSTSSIPTSSSSSSQRQSTSNADRPVSPKPMPTPTTLSEWQLLAVLSKANLVQYYDVFIAQGGDDINQIMACEEREFLEIMNLVGMLPKPLHVRRMQRALAEYSQDQTAFNLAALQQIGPPPPLNYTPAGTDPMALLLPGIAAATSPKFPSLRFLSQLSSVAEKVSTPSEAADTSSSSPSLNLNTTSSNSVPLAFKFSTPLLESLASDQQSSSTSSVRSVLPSTSSNTSHPELPAGILPATTTNVSAAVPPPSSRATANVFSGNSIGLNFSGAASVTRHLVVPPSSTSIQQPSTSFGRSSSITGQEKEGSSSPFLGVGYSQPYGNDFVSLGDFDPNNPSLTENPTLSTAQISRLAECALAASKNLPPLPPRLVQNKKRVSKEVIELLKCSPATPSMIHAFRKYSAIYGRFDTKRKPHKVLTLHETTVNEAAAQLCLLVPSLLTRRDELFPLARQIVKDAGYNYAKSRKRPCDPADLHSPISSPGNSPPPQESEFDEQPSSSSGAFKEEERPPIPPEAWAAIIEKMKGELPES
On to B1, for which the binding entry is given as “binds”.
